# The list shows a part of the results. The data scatter; read single values as rough.
# Protein sequences, listed by entry. Tags and fused reporters are not part of them. Lines headed by an entry give the natural chain unless they say otherwise; changes in a name come on top. Residues count along the entry.
# UniProt Q8IWJ2: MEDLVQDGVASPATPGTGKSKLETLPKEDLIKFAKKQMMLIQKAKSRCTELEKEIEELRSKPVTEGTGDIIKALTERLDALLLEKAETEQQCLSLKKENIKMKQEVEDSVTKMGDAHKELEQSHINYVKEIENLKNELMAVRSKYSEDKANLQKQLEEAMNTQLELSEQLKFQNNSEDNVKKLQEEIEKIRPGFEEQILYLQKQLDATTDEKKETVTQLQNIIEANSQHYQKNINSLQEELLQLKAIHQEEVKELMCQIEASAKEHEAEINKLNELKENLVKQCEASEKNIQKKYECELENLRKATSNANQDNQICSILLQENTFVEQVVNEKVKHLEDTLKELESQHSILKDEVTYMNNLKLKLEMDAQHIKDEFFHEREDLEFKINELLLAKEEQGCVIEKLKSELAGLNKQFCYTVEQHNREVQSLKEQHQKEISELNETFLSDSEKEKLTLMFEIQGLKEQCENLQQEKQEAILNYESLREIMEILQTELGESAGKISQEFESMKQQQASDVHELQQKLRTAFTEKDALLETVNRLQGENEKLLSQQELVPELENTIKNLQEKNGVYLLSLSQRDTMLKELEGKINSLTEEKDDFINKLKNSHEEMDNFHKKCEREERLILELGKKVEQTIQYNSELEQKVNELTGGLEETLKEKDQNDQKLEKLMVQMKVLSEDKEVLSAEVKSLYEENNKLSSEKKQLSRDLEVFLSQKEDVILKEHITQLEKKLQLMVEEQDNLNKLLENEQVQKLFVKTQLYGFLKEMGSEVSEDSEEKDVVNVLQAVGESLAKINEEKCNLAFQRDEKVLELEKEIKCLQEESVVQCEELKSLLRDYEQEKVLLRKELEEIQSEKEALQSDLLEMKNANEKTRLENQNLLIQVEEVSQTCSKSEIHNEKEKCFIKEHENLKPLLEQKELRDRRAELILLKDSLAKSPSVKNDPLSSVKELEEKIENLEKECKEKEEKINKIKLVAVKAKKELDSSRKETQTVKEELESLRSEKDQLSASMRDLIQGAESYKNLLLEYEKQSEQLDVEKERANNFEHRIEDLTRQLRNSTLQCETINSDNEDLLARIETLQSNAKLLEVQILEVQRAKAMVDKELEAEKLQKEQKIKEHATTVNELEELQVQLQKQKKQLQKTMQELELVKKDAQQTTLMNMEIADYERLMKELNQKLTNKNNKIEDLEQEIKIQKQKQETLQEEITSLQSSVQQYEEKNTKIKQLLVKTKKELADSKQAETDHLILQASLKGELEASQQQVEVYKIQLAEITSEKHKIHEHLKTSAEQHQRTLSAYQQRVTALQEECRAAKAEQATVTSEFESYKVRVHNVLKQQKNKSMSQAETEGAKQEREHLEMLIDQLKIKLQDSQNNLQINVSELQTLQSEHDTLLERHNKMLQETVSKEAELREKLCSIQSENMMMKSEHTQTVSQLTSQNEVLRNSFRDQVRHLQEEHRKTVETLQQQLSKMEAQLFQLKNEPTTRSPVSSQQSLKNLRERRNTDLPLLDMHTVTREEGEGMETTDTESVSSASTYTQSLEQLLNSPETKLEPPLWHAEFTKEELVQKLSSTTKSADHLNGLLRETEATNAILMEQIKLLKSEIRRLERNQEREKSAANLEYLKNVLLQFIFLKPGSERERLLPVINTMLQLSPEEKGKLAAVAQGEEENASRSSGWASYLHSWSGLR
# UniProt Q53GS7: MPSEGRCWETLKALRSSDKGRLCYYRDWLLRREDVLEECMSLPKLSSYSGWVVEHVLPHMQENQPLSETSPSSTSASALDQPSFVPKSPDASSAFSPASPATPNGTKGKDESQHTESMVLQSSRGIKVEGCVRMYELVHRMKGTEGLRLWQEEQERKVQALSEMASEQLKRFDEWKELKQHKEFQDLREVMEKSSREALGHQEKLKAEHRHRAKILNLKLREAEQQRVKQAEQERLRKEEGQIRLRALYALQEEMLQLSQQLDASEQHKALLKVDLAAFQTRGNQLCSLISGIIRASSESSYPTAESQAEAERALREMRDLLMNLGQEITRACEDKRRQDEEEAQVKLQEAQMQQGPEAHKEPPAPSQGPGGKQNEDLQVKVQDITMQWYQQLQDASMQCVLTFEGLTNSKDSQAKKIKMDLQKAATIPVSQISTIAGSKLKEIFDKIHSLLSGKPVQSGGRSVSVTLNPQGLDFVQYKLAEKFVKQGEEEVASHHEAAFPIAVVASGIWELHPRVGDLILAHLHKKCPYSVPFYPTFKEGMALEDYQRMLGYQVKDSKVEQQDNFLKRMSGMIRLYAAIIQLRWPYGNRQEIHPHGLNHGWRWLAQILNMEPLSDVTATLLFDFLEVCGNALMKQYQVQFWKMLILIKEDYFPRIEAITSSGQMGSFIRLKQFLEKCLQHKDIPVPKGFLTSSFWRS
# UniProt Q4ZG55, 1783-1802: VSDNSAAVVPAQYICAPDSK
# UniProt Q7Z2K8: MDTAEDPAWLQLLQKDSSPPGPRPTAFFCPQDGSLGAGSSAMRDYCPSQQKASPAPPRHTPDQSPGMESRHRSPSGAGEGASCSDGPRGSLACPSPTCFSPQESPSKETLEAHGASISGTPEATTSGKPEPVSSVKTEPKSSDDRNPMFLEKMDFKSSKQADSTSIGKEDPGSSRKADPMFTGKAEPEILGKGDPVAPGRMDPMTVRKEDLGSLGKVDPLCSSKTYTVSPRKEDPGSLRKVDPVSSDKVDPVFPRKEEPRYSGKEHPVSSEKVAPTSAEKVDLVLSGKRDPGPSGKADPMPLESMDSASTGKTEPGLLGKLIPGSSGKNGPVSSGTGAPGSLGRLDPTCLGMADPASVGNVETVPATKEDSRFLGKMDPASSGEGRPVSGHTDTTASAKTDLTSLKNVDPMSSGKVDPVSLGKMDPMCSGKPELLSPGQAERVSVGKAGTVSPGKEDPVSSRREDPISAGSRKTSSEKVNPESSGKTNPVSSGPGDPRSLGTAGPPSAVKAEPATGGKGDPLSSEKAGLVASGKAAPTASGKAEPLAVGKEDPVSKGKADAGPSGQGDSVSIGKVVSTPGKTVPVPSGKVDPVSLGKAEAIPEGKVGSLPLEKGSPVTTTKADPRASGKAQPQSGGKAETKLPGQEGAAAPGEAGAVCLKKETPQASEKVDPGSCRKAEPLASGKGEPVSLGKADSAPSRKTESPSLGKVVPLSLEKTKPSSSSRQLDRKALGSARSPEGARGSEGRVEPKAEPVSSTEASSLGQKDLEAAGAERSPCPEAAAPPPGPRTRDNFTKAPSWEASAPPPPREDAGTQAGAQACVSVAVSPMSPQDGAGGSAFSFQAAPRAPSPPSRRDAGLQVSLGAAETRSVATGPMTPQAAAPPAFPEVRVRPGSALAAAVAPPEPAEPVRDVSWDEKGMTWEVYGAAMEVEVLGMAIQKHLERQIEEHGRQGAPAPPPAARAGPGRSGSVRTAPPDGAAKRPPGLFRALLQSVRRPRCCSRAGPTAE
# UniProt Q92947, 171-194: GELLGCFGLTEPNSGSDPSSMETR
# UniProt Q9Y2X7, 559-582: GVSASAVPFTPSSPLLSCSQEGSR
# UniProt P63096, whole entry, looked up: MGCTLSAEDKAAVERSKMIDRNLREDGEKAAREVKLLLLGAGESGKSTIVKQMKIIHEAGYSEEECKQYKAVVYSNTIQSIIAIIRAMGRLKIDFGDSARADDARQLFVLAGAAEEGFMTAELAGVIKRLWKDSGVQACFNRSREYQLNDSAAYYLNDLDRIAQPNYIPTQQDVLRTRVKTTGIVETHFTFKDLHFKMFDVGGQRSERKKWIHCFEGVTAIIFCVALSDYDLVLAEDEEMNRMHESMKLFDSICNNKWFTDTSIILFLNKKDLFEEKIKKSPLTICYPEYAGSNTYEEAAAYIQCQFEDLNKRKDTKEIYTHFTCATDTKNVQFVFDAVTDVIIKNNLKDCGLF
# UniProt Q9UKD1: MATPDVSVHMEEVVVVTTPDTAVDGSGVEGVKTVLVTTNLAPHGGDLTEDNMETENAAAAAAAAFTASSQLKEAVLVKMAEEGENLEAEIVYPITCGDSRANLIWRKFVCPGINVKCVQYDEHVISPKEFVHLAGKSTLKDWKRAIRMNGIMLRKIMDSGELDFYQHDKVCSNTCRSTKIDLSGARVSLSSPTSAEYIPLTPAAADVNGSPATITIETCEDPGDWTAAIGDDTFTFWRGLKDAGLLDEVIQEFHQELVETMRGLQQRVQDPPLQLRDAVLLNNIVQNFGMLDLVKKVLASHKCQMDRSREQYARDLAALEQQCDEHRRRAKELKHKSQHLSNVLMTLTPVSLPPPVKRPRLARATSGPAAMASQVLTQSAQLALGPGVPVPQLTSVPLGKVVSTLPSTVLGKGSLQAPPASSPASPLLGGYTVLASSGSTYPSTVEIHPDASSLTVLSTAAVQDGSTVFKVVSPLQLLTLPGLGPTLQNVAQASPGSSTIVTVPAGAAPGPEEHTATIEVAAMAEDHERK
# UniProt Q9NQX3, 411-434: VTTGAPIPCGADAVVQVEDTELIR
# UniProt O75420: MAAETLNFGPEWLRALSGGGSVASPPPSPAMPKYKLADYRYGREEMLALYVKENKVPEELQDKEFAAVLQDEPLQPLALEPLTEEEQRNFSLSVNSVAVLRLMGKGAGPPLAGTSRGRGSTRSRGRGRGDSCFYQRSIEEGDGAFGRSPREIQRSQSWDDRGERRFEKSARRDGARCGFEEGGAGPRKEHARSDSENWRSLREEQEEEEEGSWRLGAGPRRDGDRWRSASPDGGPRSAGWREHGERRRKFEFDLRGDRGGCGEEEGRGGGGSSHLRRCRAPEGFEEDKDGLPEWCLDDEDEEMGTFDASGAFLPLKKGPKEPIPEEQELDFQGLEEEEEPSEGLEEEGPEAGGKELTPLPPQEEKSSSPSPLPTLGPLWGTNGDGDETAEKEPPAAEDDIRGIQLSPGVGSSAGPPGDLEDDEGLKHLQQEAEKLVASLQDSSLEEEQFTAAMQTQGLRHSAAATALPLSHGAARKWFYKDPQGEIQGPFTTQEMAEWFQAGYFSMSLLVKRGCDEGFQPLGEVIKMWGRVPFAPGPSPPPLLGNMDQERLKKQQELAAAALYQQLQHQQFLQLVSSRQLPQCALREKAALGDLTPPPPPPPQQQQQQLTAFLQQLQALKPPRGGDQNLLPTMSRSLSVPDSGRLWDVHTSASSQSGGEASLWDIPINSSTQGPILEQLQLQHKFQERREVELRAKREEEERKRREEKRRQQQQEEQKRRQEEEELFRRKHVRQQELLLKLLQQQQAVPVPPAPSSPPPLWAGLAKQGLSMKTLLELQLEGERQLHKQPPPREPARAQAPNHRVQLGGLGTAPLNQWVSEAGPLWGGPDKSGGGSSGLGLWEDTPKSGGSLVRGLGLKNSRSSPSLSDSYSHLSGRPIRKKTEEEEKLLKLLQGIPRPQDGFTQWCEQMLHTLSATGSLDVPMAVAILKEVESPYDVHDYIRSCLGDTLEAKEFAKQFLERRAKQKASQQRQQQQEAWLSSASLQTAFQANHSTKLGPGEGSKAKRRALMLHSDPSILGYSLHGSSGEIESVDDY
# UniProt Q92896: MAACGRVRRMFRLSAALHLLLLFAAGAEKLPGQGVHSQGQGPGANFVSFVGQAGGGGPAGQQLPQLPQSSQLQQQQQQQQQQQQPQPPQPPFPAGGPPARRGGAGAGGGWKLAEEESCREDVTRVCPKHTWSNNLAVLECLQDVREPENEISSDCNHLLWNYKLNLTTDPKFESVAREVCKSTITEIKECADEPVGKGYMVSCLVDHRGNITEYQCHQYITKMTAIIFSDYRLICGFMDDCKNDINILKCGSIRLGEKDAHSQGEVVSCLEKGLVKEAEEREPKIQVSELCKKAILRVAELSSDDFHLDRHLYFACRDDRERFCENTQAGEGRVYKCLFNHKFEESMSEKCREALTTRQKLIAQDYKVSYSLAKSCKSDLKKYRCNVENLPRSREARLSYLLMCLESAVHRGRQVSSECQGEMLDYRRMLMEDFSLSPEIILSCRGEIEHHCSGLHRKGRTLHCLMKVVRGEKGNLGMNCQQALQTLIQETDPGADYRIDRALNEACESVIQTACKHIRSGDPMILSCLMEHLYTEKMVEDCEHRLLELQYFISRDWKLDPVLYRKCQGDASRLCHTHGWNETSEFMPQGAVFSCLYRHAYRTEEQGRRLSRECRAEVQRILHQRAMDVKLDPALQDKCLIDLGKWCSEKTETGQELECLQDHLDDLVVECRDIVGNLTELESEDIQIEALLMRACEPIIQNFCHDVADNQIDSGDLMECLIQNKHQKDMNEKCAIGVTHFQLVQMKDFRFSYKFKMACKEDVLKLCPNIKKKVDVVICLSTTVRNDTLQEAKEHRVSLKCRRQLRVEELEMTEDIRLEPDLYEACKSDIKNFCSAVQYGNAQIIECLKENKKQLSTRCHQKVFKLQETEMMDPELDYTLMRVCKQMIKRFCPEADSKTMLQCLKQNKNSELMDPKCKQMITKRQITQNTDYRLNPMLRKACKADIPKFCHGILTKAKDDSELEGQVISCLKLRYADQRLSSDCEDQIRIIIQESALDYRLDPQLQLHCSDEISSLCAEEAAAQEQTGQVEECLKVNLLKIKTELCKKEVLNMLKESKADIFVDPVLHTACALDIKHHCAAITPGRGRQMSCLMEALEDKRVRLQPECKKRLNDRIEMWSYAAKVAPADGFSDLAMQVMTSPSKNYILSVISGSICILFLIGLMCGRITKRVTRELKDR
# Assays:
# [1] = compound: ClCC(=O)N[C@@H]1CCCc2ccccc12; assay: log2 mean competition ratio of IA-DTB cysteine labelling (DMSO/compound) (log2 ratio); higher = stronger cysteine engagement by compound; conditions: treatment time: 4 h, cell line lysate: HEK293T
# Experimental: (§1)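 IA-DTB competitive cysteine chemoproteomics in HEK293T RIPA lysate. Lysates were treated with compound 29 or 30 at 50 or 200 µM for 4 h, then IA-DTB (500 µM, 1 h), trypsin-digested, NeutrAvidin-enriched and analysed by diaPASEF. Competition ratio = intensity DMSO / intensity compound (n=4 treated, n=64 DMSO); binding: mean log2 CR ≥ 1 and p ≤ 0.05 plus QC filters. Target is the cysteine site.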
# [2] = compound: ClCC(=O)N[C@H]1CCCc2ccccc12; assay: as above; conditions: treatment time: 4 h, cell line lysate: HEK293T
# Experimental: as §1
target,measurement,setting,value
GNPAT C73 (UniProt O15228),log2 mean competition ratio,[1]; 50 µM,0.0298
same,log2 mean competition ratio,[1]; 200 µM,-0.237
same,log2 mean competition ratio,[2]; 50 µM,-0.273
same,log2 mean competition ratio,[2]; 200 µM,-0.301
GCC2 C416 (UniProt Q8IWJ2),log2 mean competition ratio,[1]; 50 µM,0.434
same,log2 mean competition ratio,[1]; 200 µM,0.11
same,log2 mean competition ratio,[2]; 50 µM,0.248
same,log2 mean competition ratio,[2]; 200 µM,-0.0132
GLE1 C39 (UniProt Q53GS7),log2 mean competition ratio,[1]; 50 µM,-0.152
same,log2 mean competition ratio,[1]; 200 µM,-0.187
same,log2 mean competition ratio,[2]; 50 µM,-0.222
same,log2 mean competition ratio,[2]; 200 µM,-0.329
GPS1 C192,log2 mean competition ratio,[1]; 50 µM,-0.00471
same,log2 mean competition ratio,[1]; 200 µM,0.0229
same,log2 mean competition ratio,[2]; 50 µM,0.0273
same,log2 mean competition ratio,[2]; 200 µM,0.0856
GRK6 C42 (UniProt P43250),log2 mean competition ratio,[1]; 50 µM,-0.488
same,log2 mean competition ratio,[1]; 200 µM,0.331
same,log2 mean competition ratio,[2]; 50 µM,0.245
same,log2 mean competition ratio,[2]; 200 µM,0.205
GPX4 C93 (UniProt P36969),log2 mean competition ratio,[1]; 50 µM,-0.162
same,log2 mean competition ratio,[1]; 200 µM,-0.224
same,log2 mean competition ratio,[2]; 50 µM,0.419
same,log2 mean competition ratio,[2]; 200 µM,-0.0174
GMDS C336 (UniProt O60547),log2 mean competition ratio,[1]; 50 µM,0.224
same,log2 mean competition ratio,[1]; 200 µM,0.133
same,log2 mean competition ratio,[2]; 50 µM,-0.0927
same,log2 mean competition ratio,[2]; 200 µM,0.0642
GOLGB1 C1462 (UniProt Q14789),log2 mean competition ratio,[1]; 50 µM,-0.219
same,log2 mean competition ratio,[1]; 200 µM,0.21
same,log2 mean competition ratio,[2]; 50 µM,-0.217
same,log2 mean competition ratio,[2]; 200 µM,0.155
GMPPB C149 (UniProt Q9Y5P6),log2 mean competition ratio,[1]; 50 µM,0.0572
same,log2 mean competition ratio,[1]; 200 µM,-0.247
same,log2 mean competition ratio,[2]; 50 µM,0.234
same,log2 mean competition ratio,[2]; 200 µM,-0.15
GCLC C501 (UniProt P48506),log2 mean competition ratio,[1]; 50 µM,-0.034
same,log2 mean competition ratio,[1]; 200 µM,0.0666
same,log2 mean competition ratio,[2]; 50 µM,0.243
same,log2 mean competition ratio,[2]; 200 µM,0.119
GNB2 C25 (UniProt P62879),log2 mean competition ratio,[1]; 50 µM,0.293
same,log2 mean competition ratio,[1]; 200 µM,-0.046
same,log2 mean competition ratio,[2]; 50 µM,0.496
same,log2 mean competition ratio,[2]; 200 µM,0.0604
GCFC2 C336 (UniProt P16383),log2 mean competition ratio,[1]; 50 µM,-0.0554
same,log2 mean competition ratio,[1]; 200 µM,-0.0725
same,log2 mean competition ratio,[2]; 50 µM,-0.236
same,log2 mean competition ratio,[2]; 200 µM,0.0553
GREB1 C1797 (UniProt Q4ZG55),log2 mean competition ratio,[1]; 50 µM,0.173
same,log2 mean competition ratio,[1]; 200 µM,-0.533
same,log2 mean competition ratio,[2]; 50 µM,-0.0577
same,log2 mean competition ratio,[2]; 200 µM,-0.00728
GLMN C36 (UniProt Q92990),log2 mean competition ratio,[1]; 50 µM,-0.108
same,log2 mean competition ratio,[1]; 200 µM,0.248
same,log2 mean competition ratio,[2]; 50 µM,-0.373
same,log2 mean competition ratio,[2]; 200 µM,-0.0468
GNB4 C204 (UniProt Q9HAV0),log2 mean competition ratio,[1]; 50 µM,-0.178
same,log2 mean competition ratio,[1]; 200 µM,0.0268
same,log2 mean competition ratio,[2]; 50 µM,-0.0606
same,log2 mean competition ratio,[2]; 200 µM,0.12
GCN1 C2015 (UniProt Q92616),log2 mean competition ratio,[1]; 50 µM,0.252
same,log2 mean competition ratio,[1]; 200 µM,0.00749
same,log2 mean competition ratio,[2]; 50 µM,0.0864
same,log2 mean competition ratio,[2]; 200 µM,-0.0489
GNB1 C204 (UniProt P62873),log2 mean competition ratio,[1]; 50 µM,0.0339
same,log2 mean competition ratio,[1]; 200 µM,0.0613
same,log2 mean competition ratio,[2]; 50 µM,-0.00129
same,log2 mean competition ratio,[2]; 200 µM,0.109
GIT2 C672 (UniProt Q14161),log2 mean competition ratio,[1]; 50 µM,0.0442
same,log2 mean competition ratio,[1]; 200 µM,0.0214
same,log2 mean competition ratio,[2]; 50 µM,-0.0791
same,log2 mean competition ratio,[2]; 200 µM,-0.0581
GPRIN1 C778 (UniProt Q7Z2K8),log2 mean competition ratio,[1]; 50 µM,-0.0947
same,log2 mean competition ratio,[1]; 200 µM,-0.0459
same,log2 mean competition ratio,[2]; 50 µM,-0.159
same,log2 mean competition ratio,[2]; 200 µM,-0.0747
GNA13 C329 (UniProt Q14344),log2 mean competition ratio,[1]; 50 µM,0.243
same,log2 mean competition ratio,[1]; 200 µM,0.00746
same,log2 mean competition ratio,[2]; 50 µM,0.389
same,log2 mean competition ratio,[2]; 200 µM,-0.0121
GDPD1 C107 (UniProt Q8N9F7),log2 mean competition ratio,[1]; 50 µM,0.328
same,log2 mean competition ratio,[1]; 200 µM,-0.177
same,log2 mean competition ratio,[2]; 50 µM,-0.323
same,log2 mean competition ratio,[2]; 200 µM,-0.262
GRB2 C32 (UniProt P62993),log2 mean competition ratio,[1]; 50 µM,0.013
same,log2 mean competition ratio,[1]; 200 µM,0.0448
same,log2 mean competition ratio,[2]; 50 µM,0.291
same,log2 mean competition ratio,[2]; 200 µM,0.0896
GCC1 C460 (UniProt Q96CN9),log2 mean competition ratio,[1]; 50 µM,0.274
same,log2 mean competition ratio,[1]; 200 µM,-0.389
same,log2 mean competition ratio,[2]; 50 µM,0.538
same,log2 mean competition ratio,[2]; 200 µM,-0.192
GNL2 C336 (UniProt Q13823),log2 mean competition ratio,[1]; 50 µM,0.17
same,log2 mean competition ratio,[1]; 200 µM,0.0224
same,log2 mean competition ratio,[2]; 50 µM,-0.148
same,log2 mean competition ratio,[2]; 200 µM,-0.0427
GEMIN8 C180 (UniProt Q9NWZ8),log2 mean competition ratio,[1]; 50 µM,0.226
same,log2 mean competition ratio,[1]; 200 µM,0.276
same,log2 mean competition ratio,[2]; 50 µM,-0.194
same,log2 mean competition ratio,[2]; 200 µM,0.102
GOLGA4 C1085 (UniProt Q13439),log2 mean competition ratio,[1]; 50 µM,-0.0134
same,log2 mean competition ratio,[1]; 200 µM,-0.222
same,log2 mean competition ratio,[2]; 50 µM,0.247
same,log2 mean competition ratio,[2]; 200 µM,-0.117
GCDH C176 (UniProt Q92947),log2 mean competition ratio,[1]; 50 µM,-0.162
same,log2 mean competition ratio,[1]; 200 µM,-0.222
same,log2 mean competition ratio,[2]; 50 µM,0.257
same,log2 mean competition ratio,[2]; 200 µM,-0.131
GMDS C92 (UniProt O60547),log2 mean competition ratio,[1]; 50 µM,-0.111
same,log2 mean competition ratio,[1]; 200 µM,0.662
same,log2 mean competition ratio,[2]; 50 µM,-0.517
same,log2 mean competition ratio,[2]; 200 µM,0.351
GIT1 C576 (UniProt Q9Y2X7),log2 mean competition ratio,[1]; 50 µM,-0.00539
same,log2 mean competition ratio,[1]; 200 µM,0.102
same,log2 mean competition ratio,[2]; 50 µM,0.346
same,log2 mean competition ratio,[2]; 200 µM,0.0653
GPC4 C423 (UniProt O75487),log2 mean competition ratio,[1]; 50 µM,-0.0964
same,log2 mean competition ratio,[1]; 200 µM,0.426
same,log2 mean competition ratio,[2]; 50 µM,0.165
same,log2 mean competition ratio,[2]; 200 µM,0.273
GGCX C343 (UniProt P38435),log2 mean competition ratio,[1]; 50 µM,0.217
same,log2 mean competition ratio,[1]; 200 µM,0.257
same,log2 mean competition ratio,[2]; 50 µM,0.351
same,log2 mean competition ratio,[2]; 200 µM,0.197
GEMIN2 C63 (UniProt O14893),log2 mean competition ratio,[1]; 50 µM,-0.33
same,log2 mean competition ratio,[1]; 200 µM,-0.0902
same,log2 mean competition ratio,[2]; 50 µM,-0.0786
same,log2 mean competition ratio,[2]; 200 µM,-0.238
GCN1 C1984 (UniProt Q92616),log2 mean competition ratio,[1]; 50 µM,0.0807
same,log2 mean competition ratio,[1]; 200 µM,0.119
same,log2 mean competition ratio,[2]; 50 µM,0.268
same,log2 mean competition ratio,[2]; 200 µM,0.334
GNAI1 C351 (UniProt P63096),log2 mean competition ratio,[1]; 50 µM,-0.0806
same,log2 mean competition ratio,[1]; 200 µM,-0.348
same,log2 mean competition ratio,[2]; 50 µM,0.651
same,log2 mean competition ratio,[2]; 200 µM,0.0201
GMEB2 C323 (UniProt Q9UKD1),log2 mean competition ratio,[1]; 50 µM,-0.31
same,log2 mean competition ratio,[1]; 200 µM,0.224
same,log2 mean competition ratio,[2]; 50 µM,-0.346
same,log2 mean competition ratio,[2]; 200 µM,0.295
GPHN C419 (UniProt Q9NQX3),log2 mean competition ratio,[1]; 50 µM,-0.155
same,log2 mean competition ratio,[1]; 200 µM,-0.0396
same,log2 mean competition ratio,[2]; 50 µM,0.237
same,log2 mean competition ratio,[2]; 200 µM,-0.131
GRIPAP1 C581 (UniProt Q4V328),log2 mean competition ratio,[1]; 50 µM,-0.0492
same,log2 mean competition ratio,[1]; 200 µM,-0.249
same,log2 mean competition ratio,[2]; 50 µM,-0.342
same,log2 mean competition ratio,[2]; 200 µM,-0.154
GLCCI1 C423 (UniProt Q86VQ1),log2 mean competition ratio,[1]; 50 µM,0.00478
same,log2 mean competition ratio,[1]; 200 µM,0.0697
same,log2 mean competition ratio,[2]; 50 µM,0.0698
same,log2 mean competition ratio,[2]; 200 µM,0.285
GNL3 C158 (UniProt Q9BVP2),log2 mean competition ratio,[1]; 50 µM,-0.022
same,log2 mean competition ratio,[1]; 200 µM,-0.268
same,log2 mean competition ratio,[2]; 50 µM,0.564
same,log2 mean competition ratio,[2]; 200 µM,-0.0546
GIGYF1 C177 (UniProt O75420),log2 mean competition ratio,[1]; 50 µM,0.065
same,log2 mean competition ratio,[1]; 200 µM,0.0728
same,log2 mean competition ratio,[2]; 50 µM,-0.183
same,log2 mean competition ratio,[2]; 200 µM,0.0265
GEN1 C890 (UniProt Q17RS7),log2 mean competition ratio,[1]; 50 µM,-0.35
same,log2 mean competition ratio,[1]; 200 µM,-0.012
same,log2 mean competition ratio,[2]; 50 µM,0.765
same,log2 mean competition ratio,[2]; 200 µM,0.274
GK5 C43 (UniProt Q6ZS86),log2 mean competition ratio,[1]; 50 µM,0.0984
same,log2 mean competition ratio,[1]; 200 µM,-0.00762
same,log2 mean competition ratio,[2]; 50 µM,0.0911
same,log2 mean competition ratio,[2]; 200 µM,0.0974
GNA11 C144 (UniProt P29992),log2 mean competition ratio,[1]; 50 µM,-0.0209
same,log2 mean competition ratio,[1]; 200 µM,0.0775
same,log2 mean competition ratio,[2]; 50 µM,0.25
same,log2 mean competition ratio,[2]; 200 µM,0.13
GOLPH3 C280 (UniProt Q9H4A6),log2 mean competition ratio,[1]; 50 µM,-0.376
same,log2 mean competition ratio,[1]; 200 µM,0.383
same,log2 mean competition ratio,[2]; 50 µM,0.0801
same,log2 mean competition ratio,[2]; 200 µM,0.596
GEMIN5 C973 (UniProt Q8TEQ6),log2 mean competition ratio,[1]; 50 µM,0.0133
same,log2 mean competition ratio,[1]; 200 µM,-0.0537
same,log2 mean competition ratio,[2]; 50 µM,0.0278
same,log2 mean competition ratio,[2]; 200 µM,0.0846
GLG1 C970 (UniProt Q92896),log2 mean competition ratio,[1]; 50 µM,-0.181
same,log2 mean competition ratio,[1]; 200 µM,0.497
same,log2 mean competition ratio,[2]; 50 µM,-0.207
same,log2 mean competition ratio,[2]; 200 µM,0.536
GRK2 C120 (UniProt P25098),log2 mean competition ratio,[1]; 50 µM,0.165
same,log2 mean competition ratio,[1]; 200 µM,0.114
same,log2 mean competition ratio,[2]; 50 µM,-0.275
same,log2 mean competition ratio,[2]; 200 µM,-0.0906
GPATCH2 C188 (UniProt Q9NW75),log2 mean competition ratio,[1]; 50 µM,-0.0478
same,log2 mean competition ratio,[1]; 200 µM,0.171
same,log2 mean competition ratio,[2]; 50 µM,0.0201
same,log2 mean competition ratio,[2]; 200 µM,0.23

# Pulled one by one from the entries so far (5):
target,measurement,setting,value
GCC1 C460 (UniProt Q96CN9),log2 mean competition ratio,[2]; 200 µM,-0.192
GPRIN1 C778 (UniProt Q7Z2K8),log2 mean competition ratio,[2]; 200 µM,-0.0747
GIGYF1 C177 (UniProt O75420),log2 mean competition ratio,[2]; 50 µM,-0.183
GPX4 C93 (UniProt P36969),log2 mean competition ratio,[2]; 50 µM,0.419
GRB2 C32 (UniProt P62993),log2 mean competition ratio,[2]; 200 µM,0.0896

# Reformatted: entries from further up
target | measurement | setting | value
GIGYF1 C177 (UniProt O75420) | log2 mean competition ratio | [1]; 50 µM | 0.065
same | log2 mean competition ratio | [1]; 200 µM | 0.0728
